Experimental data taken from patent US5948750A, “Conjugates useful in the treatment of prostate cancer” (priority 1997, dated 1999).
Part of at least one peptide drawing is inferred or uncertain, most often the ends.

Assays:
DuPRO cells = assay: In vitro cytotoxicity of peptidyl derivatives of doxorubicin, Alamar Blue assay, DuPRO; type: cell-based; conditions: 72 HRS, read-out: DUPRO Cell Kill in 72 HRS EC 50
Protocol: (§1) The cytotoxicities of the cleaveable oligopeptide-doxorubicin conjugates, prepared as described in Examples 3 and 4, against a line of cells which is known to be killed by unmodified doxorubicin were assessed with an Alamar Blue assay. Specifically, cell cultures of LNCap prostate tumor cells (which express enzymatically active PSA) or DuPRO cells in 96 well plates was diluted with medium (Dulbecco's […]-α[MEM-α]) containing various concentrations of a given conjugate (final plate well volume of 200 μl). The cells were incubated for 3 days at 37° C., 20 μl of Alamar Blue is added to the assay well. The cells were further incubated and the assay plates were read on a EL-310 ELISA reader at the dual wavelengths of 570 and 600 nm at 4 and 7 hours after addition of Alamar Blue. Relative percentage viability at the various concentration of conjugate tested was then calculated versus control (no conjugate) cultures. If no salt is indicated, the free conjugate was tested.

[1] = tested on: LNCap prostate tumor cells (which express enzymatically active PSA); assay: In vitro cytotoxicity of peptidyl derivatives of doxorubicin, Alamar Blue assay, LNCaP; type: cell-based; conditions: 72 HRS (3 days at 37° C.), read-out: LNCaP Cell Kill in 72 HRS EC 50
Protocol: as §1

SMILES: COc1cccc2c1C(=O)c1c(O)c3c(c(O)c1C2=O)C[C@@](O)(C(=O)CO)C[C@@H]3O[C@H]1C[C@H](NC(=O)[C@H](CC(C)(C)C)NC(=O)[C@H](CO)NC(=O)[C@H](CCC(N)=O)NC(=O)[C@@H](NC(=O)[C@H](CO)NC(=O)[C@H](C)NC(=O)[C@@H]2C[C@@H](O)CN2C(C)=O)C2CCCCC2)[C@H](O)[C@H](C)O1
- EC50 (DuPRO cells): > 100 µM
- EC50 [1]: 100 µM
